Laboratory results reported in the supplement of paper PMC8728848.
The list shows a part of the results.

Key:
Assay in all cases: glycan array binding signal (z-score within array); higher = stronger binding
Details in all cases: glycan notation: IUPAC condensed, linker removed
[1] = target: Neu5Ac(a2-3)Gal(b1-3)GlcNAc(b1-6)GalNAc
Procedure, shortened: (§1)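 Glycan array data came from 3228 arrays in the Consortium for Functional Glycomics database, and only arrays with an available protein sequence were kept. Glycan names were put into IUPAC-condensed notation, and columns mapping to the same glycan were averaged. The binding signal is a within-array Z-score, averaged across arrays of one protein sequence run at different concentrations or buffers and across linkers. A negative Z-score can be read as non-binding.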

[2] = target: Neu5Ac(a2-3)Gal(b1-3)GlcNAc6S
Procedure, shortened: as §1

[3] = target: Neu5Ac(a2-3)Gal(b1-3)[Fuc(a1-4)]GlcNAc
Procedure, shortened: as §1

[4] = target: Neu5Ac(a2-3)Gal(b1-3)[Fuc(a1-4)]GlcNAc(b1-3)Gal(b1-3)[Fuc(a1-4)]GlcNAc
Procedure, shortened: as §1

[5] = target: Neu5Ac(a2-3)Gal(b1-3)[Fuc(a1-4)]GlcNAc(b1-3)Gal(b1-4)[Fuc(a1-3)]GlcNAc
Procedure, shortened: as §1

[6] = target: Neu5Ac(a2-3)Gal(b1-3)[GlcNAc(b1-6)]GalNAc
Procedure, shortened: as §1

[7] = target: Neu5Ac(a2-3)Gal(b1-3)[Neu5Ac(a2-6)]GalNAc
Procedure, shortened: as §1

[8] = target: Neu5Ac(a2-3)Gal(b1-3)[Neu5Ac(a2-6)]GlcNAc(b1-3)[Fuc(a1-3)[Gal(b1-4)]GlcNAc(b1-6)]Gal(b1-4)Glc
Procedure, shortened: as §1

[9] = target: Neu5Ac(a2-3)Gal(b1-3)]Neu5Ac(a2-3)Gal(b1-4)]GlcNAc
Procedure, shortened: as §1

Neu5Ac(a2-3)Gal(b1-4)Glc = target: Neu5Ac(a2-3)Gal(b1-4)Glc
Procedure, shortened: as §1

[10] = target: Neu5Ac(a2-3)Gal(b1-4)GlcNAc
Procedure, shortened: as §1

[11] = target: Neu5Ac(a2-3)Gal(b1-4)GlcNAc(b1-2)Man
Procedure, shortened: as §1

[12] = target: Neu5Ac(a2-3)Gal(b1-4)GlcNAc(b1-2)Man(a1-3)[GlcNAc(b1-4)][Neu5Ac(a2-3)Gal(b1-4)GlcNAc(b1-2)Man(a1-6)]Man(b1-4)GlcNAc(b1-4)GlcNAc
Procedure, shortened: as §1

[13] = target: Neu5Ac(a2-3)Gal(b1-4)GlcNAc(b1-2)Man(a1-3)[Neu5Ac(a2-3)Gal(b1-4)GlcNAc(b1-2)Man(a1-6)]Man(b1-4)GlcNAc(b1-4)GlcNAc
Procedure, shortened: as §1

[14] = target: Neu5Ac(a2-3)Gal(b1-4)GlcNAc(b1-2)Man(a1-3)[Neu5Ac(a2-3)Gal(b1-4)GlcNAc(b1-2)Man(a1-6)]Man(b1-4)GlcNAc(b1-4)[Fuc(a1-6)]GlcNAc
Procedure, shortened: as §1

[15] = target: Neu5Ac(a2-3)Gal(b1-4)GlcNAc(b1-2)Man(a1-3)[Neu5Ac(a2-6)Gal(b1-4)GlcNAc(b1-2)Man(a1-6)]Man(b1-4)GlcNAc(b1-4)GlcNAc
Procedure, shortened: as §1

[16] = target: Neu5Ac(a2-3)Gal(b1-4)GlcNAc(b1-2)[Neu5Ac(a2-3)Gal(b1-4)GlcNAc(b1-4)]Man(a1-3)[GlcNAc(b1-4)][Neu5Ac(a2-3)Gal(b1-4)GlcNAc(b1-2)[Neu5Ac(a2-3)Gal(b1-4)GlcNAc(b1-6)]Man(a1-6)]Man(b1-4)GlcNAc(b1-4)GlcNAc
Procedure, shortened: as §1

[17] = target: Neu5Ac(a2-3)Gal(b1-4)GlcNAc(b1-2)[Neu5Ac(a2-3)Gal(b1-4)GlcNAc(b1-4)]Man(a1-3)[GlcNAc(b1-4)][Neu5Ac(a2-3)Gal(b1-4)GlcNAc(b1-4)Man(a1-6)]Man(b1-4)GlcNAc(b1-4)GlcNAc
Procedure, shortened: as §1

[18] = target: Neu5Ac(a2-3)Gal(b1-4)GlcNAc(b1-2)[Neu5Ac(a2-3)Gal(b1-4)GlcNAc(b1-6)]Man(a1-6)[Neu5Ac(a2-3)Gal(b1-4)GlcNAc(b1-2)Man(a1-3)][GlcNAc(b1-4)]Man(b1-4)GlcNAc(b1-4)GlcNAc
Procedure, shortened: as §1

[19] = target: Neu5Ac(a2-3)Gal(b1-4)GlcNAc(b1-3)Gal
Procedure, shortened: as §1

[20] = target: Neu5Ac(a2-3)Gal(b1-4)GlcNAc(b1-3)Gal(b1-3)GlcNAc
Procedure, shortened: as §1

[21] = target: Neu5Ac(a2-3)Gal(b1-4)GlcNAc(b1-3)Gal(b1-4)GlcNAc
Procedure, shortened: as §1

[22] = target: Neu5Ac(a2-3)Gal(b1-4)GlcNAc(b1-3)Gal(b1-4)GlcNAc(b1-2)Man(a1-3)[Neu5Ac(a2-3)Gal(b1-4)GlcNAc(b1-3)Gal(b1-4)GlcNAc(b1-2)Man(a1-6)]Man(b1-4)GlcNAc(b1-4)GlcNAc
Procedure, shortened: as §1

[23] = target: Neu5Ac(a2-3)Gal(b1-4)GlcNAc(b1-3)Gal(b1-4)GlcNAc(b1-3)Gal(b1-4)GlcNAc
Procedure, shortened: as §1

[24] = target: Neu5Ac(a2-3)Gal(b1-4)GlcNAc(b1-3)Gal(b1-4)GlcNAc(b1-3)Gal(b1-4)GlcNAc(b1-2)Man(a1-3)[Neu5Ac(a2-3)Gal(b1-4)GlcNAc(b1-3)Gal(b1-4)GlcNAc(b1-3)Gal(b1-4)GlcNAc(b1-2)Man(a1-6)]GalNAc
Procedure, shortened: as §1

[25] = target: Neu5Ac(a2-3)Gal(b1-4)GlcNAc(b1-3)Gal(b1-4)GlcNAc(b1-3)GalNAc
Procedure, shortened: as §1

[26] = target: Neu5Ac(a2-3)Gal(b1-4)GlcNAc(b1-3)Gal(b1-4)GlcNAc(b1-3)[Neu5Ac(a2-3)Gal(b1-4)GlcNAc(b1-3)Gal(b1-4)GlcNAc(b1-6)]GalNAc
Procedure, shortened: as §1

[27] = target: Neu5Ac(a2-3)Gal(b1-4)GlcNAc(b1-3)Gal(b1-4)GlcNAc(b1-6)[Gal(b1-3)]GalNAc
Procedure, shortened: as §1

[28] = target: Neu5Ac(a2-3)Gal(b1-4)GlcNAc(b1-3)Gal(b1-4)[Fuc(a1-3)]GlcNAc
Procedure, shortened: as §1

[29] = target: Neu5Ac(a2-3)Gal(b1-4)GlcNAc(b1-3)GalNAc
Procedure, shortened: as §1

B1: CcfD (Bacteroides vulgatus), A6KYX8 (protein)
chain: MKYKNYFKSIIYLALGAFTLGSCEDFLDRQEDEKLTFDKIWESRNTTQQYWLNAMSFLPNENGSLQGDTEPYLGASDECTIAYDRQYRWINFGTWNPSQVPYYKMDHYYKGIRECNIFLQNVYKCSDPLVTKDQLDEWYWQTRFARAYYYFLMMRDYGPVFLLGDDLLDFTASTEELYRPRNTWDQCVNYVVSEMTQCAESGVVLQQSDLPAAKWGLATVGTCHAVISRLLLYSARPLFNGNKLYSTVKNPDAPDFPELSGVKLFPELDNTKWQKAAEAAKKLIDNPCYELYRAGNDNPYEDYYGVTHETWNKELIWTDRYNGLFSWGVGTVPTGVAGTAYGAVGPTQALVDAYAMNTGWYPITGYEADGTPIVEPLSGYELASELEKSSWIYPSGGWSNKADFEIEAPNMYKDREPRFYVTVFFGGNQWLHGNSATSISFAKGGNGNKSHDYPKSGYLCNRFYDHKLNSSEGQWGNITFPVFRLGEIYLNFIEAVLECKKNGVALDPSYEALAMEKWADLRKRAGLDPITSIYGQVSTEELIQLCRKERQIELAFERHRYFDTRTWMIATQTDNGKMYGMNTSCPLDAGMKGTETPDGFWERTAFETRVFQNKHYLYPFSQRELDRNKLLTQNYGW
- glycan array binding signal (z-score) [1]: -0.795
- glycan array binding signal (z-score) [2]: 0.979
- glycan array binding signal (z-score) [3]: -0.297
- glycan array binding signal (z-score) [4]: -0.205
- glycan array binding signal (z-score) [5]: 0.099
- glycan array binding signal (z-score) [6]: -0.393
- glycan array binding signal (z-score) [7]: 0.303
- glycan array binding signal (z-score) [8]: 0.303
- glycan array binding signal (z-score) [9]: -0.581
- glycan array binding signal (z-score) (Neu5Ac(a2-3)Gal(b1-4)Glc): -0.589
- glycan array binding signal (z-score) [10]: -0.647
- glycan array binding signal (z-score) [11]: 0.435
- glycan array binding signal (z-score) [12]: -0.698
- glycan array binding signal (z-score) [13]: -0.978
- glycan array binding signal (z-score) [14]: 0.242
- glycan array binding signal (z-score) [15]: -0.16
- glycan array binding signal (z-score) [16]: -0.612
- glycan array binding signal (z-score) [17]: -0.795
- glycan array binding signal (z-score) [18]: -0.404
- glycan array binding signal (z-score) [19]: 1.96
- glycan array binding signal (z-score) [20]: 0.348
- glycan array binding signal (z-score) [21]: -0.536
- glycan array binding signal (z-score) [22]: -0.932
- glycan array binding signal (z-score) [23]: -0.815
- glycan array binding signal (z-score) [24]: -0.592
- glycan array binding signal (z-score) [25]: -0.693
- glycan array binding signal (z-score) [26]: -0.429
- glycan array binding signal (z-score) [27]: -0.957
- glycan array binding signal (z-score) [28]: -0.165
- glycan array binding signal (z-score) [29]: -0.551
